This note sets out measurements from the supplement of paper PMC7024190.

The other results are listed elsewhere or left out. This data set is noisy: repeats of one test often differ as much as different tests do.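 Human embryonic kidney cells were transiently transfected with a plasmid bearing a Renilla luciferase gene under the HSV-TK promoter. This first-round screen tests roughly ten thousand compounds for ones that increase reporter output.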

The assay has as its system HEK 293FT. As to the kind of experiment: log relative Renilla luciferase luminescence (reporter expression vs reference, reference not stated) (log (base not stated)); higher = higher recombinant reporter expression. The conditions noted are these: 10 µM; time after transfection 48 h. As for the experimental part:
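HEK 293FT cells transiently transfected with pRL-TK (Renilla luciferase) were treated with compounds at 10 uM and luminescence was read about 42 h later. Values are log relative Renilla luminescence (log base and reference not stated). Single-pass screen; 2080 natural products library.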
Take `C/C(=C\CC[C@@H](C)[C@H]1CC[C@@]2(C)C3=CC[C@H]4C(C)(C)C(=O)CC[C@]4(C)C3=CC[C@]12C)CO` [Ganoderol A]: the log was found to be 0.0825.

In the case of `COc1ccc(C[C@H]2CO[C@H](c3ccc(OC)c(OC)c3)[C@H]2COC(C)=O)cc1OC` [Lariciresinol-4,4'-dimethyl ether-9-acetate], the log was -0.361.

Turning to `C=C(C(=O)O)[C@H]1CC=C(CCC(C)=O)[C@@H](C)CC1` [4-Oxobedfordiaic acid], the log is -0.0297.

In the case of `O=C1CC(c2c(O)cccc2O)Oc2cc(O)cc(O)c21` (stereo not given) [2',5,6',7-Tetrahydroxyflavanone], the log is 0.0405.

As to `C[C@H]1[C@H](C)CC[C@]2(C(=O)O)CC[C@]3(C)C(=CC[C@@H]4[C@@]5(C)C[C@@H](O)[C@@H](O)[C@](C)(CO)[C@@H]5CC[C@]43C)[C@H]12` [2,3,24-Trihydroxy-12-ursen-28-oic acid], the log is -0.594.

Consider `O=Cc1cc(O)c2[nH]c3ccc(O)cc3c2c1` [Clausine Z], for which the log is -0.566.

Regarding `OCC1CCC(O)C1` (stereo not given) [3-(Hydroxymethyl)cyclopentanol], the log amounted to 0.113.

For the compound `CC(C)=CCC[C@](C)(O)[C@H]1CC[C@]2(C)[C@@H]1CC[C@@H]1[C@@]3(C)CCC(=O)C(C)(C)[C@@H]3CC[C@]12C` [Dipterocarpol], the log came to 0.0294.

For `C[C@@H]1C[C@H]2O[C@@]3(O[C@@H]2C(C)(C)O)[C@H](O)[C@@]2(C)[C@@H]4CC[C@H]5C(C)(C)[C@@H](O[C@@H]6OC[C@H](O)[C@H](O)[C@H]6O)CC[C@@]56C[C@@]46CC[C@]2(C)[C@@H]13` [Cimiracemoside C], the log is 0.0541.

On to `COc1cc(C(=O)O)cc(OC)c1O` [Syringic acid], for which the log was -0.248.

As for `C=C1CC[C@@H]2[C@](C)(CCC[C@]2(C)C(=O)O)[C@H]1CCC1=CCOC1=O` [Pinusolidic acid], the log came to 0.132.

`COc1cc(OC)c2ccc(=O)oc2c1[C@H]1C=C(C)CC(C)(C)[C@@H]1[C@@H](O)c1c(OC)cc(OC)c2ccc(=O)oc12` [Toddalosin]: the log is -0.142.

For the compound `CC(C)C1=CC2=CCC3C(C)(C(=O)O)CCCC3(C)C2CC1O` (stereo not given) [12-Hydroxyabietic acid], the log is -0.327.

`CC(O)(CO)C(O)CO` (stereo not given) [2-methylbutane-1,2,3,4-tetrol]: the log is -0.265.

On to `C=C1CC[C@@H]2[C@](C)(CCC[C@]2(C)C(=O)O)[C@H]1CC/C(C)=C/COC(C)=O` [Acetylisocupressic acid], for which the log turned out to be 0.0251.

On to `CC[C@H](/C=C/[C@@H](C)[C@H]1CC[C@H]2[C@@H]3[C@H](O)C=C4C[C@@H](O)CC[C@]4(C)[C@H]3CC[C@]12C)C(C)C` [7alpha-Hydroxystigmasterol], for which the log is -0.129.

As for `CC(C)[C@H]1CC[C@@H]2[C@]1(C)CC[C@]1(C)C3=C(CC[C@@]21C)[C@@](C)(CC(=O)O)[C@H](C(C)(C)C=O)CC3` [Alstonic acid A], the log was -0.0445.

For the compound `CCCCCCCCCCCCCCCC(=O)O[C@H]1CC[C@@]2(C)C(=CC[C@H]3[C@@H]4CC[C@H]([C@H](C)CC[C@@H](CC)C(C)C)[C@@]4(C)CC[C@@H]32)C1` [Sitosteryl palmitate], the log is -0.341.

Consider `O=C(O)c1ccccc1` [Benzoic acid], for which the log is -0.117.

Turning to `CCCCCCCCCCCCCCCCCCCCCCCCCCCCOC(=O)/C=C/c1ccc(O)c(OC)c1` [Octacosyl (E)-ferulate], the log was -0.0729.

Regarding `OCc1ccccc1O[C@@H]1O[C@H](CO)[C@@H](O)[C@H](O)[C@H]1O` [Salicin], the log came to 0.0875.

In the case of `COc1ccc(-c2cc(=O)c3c(O)cc(O)cc3o2)cc1` [Acacetin], the log was -0.144.

With `COc1cc2ccc(=O)oc2cc1OC` [Scoparone], the log is 0.0352.

Consider `Cc1cccc2c3c(ccc12)C(=O)C(=O)C1=C3OC[C@H]1C` [Dihydroisotanshinone II], for which the log is -0.357.

Take `CC[C@H](C)C(=O)N[C@H]1CCCN1C(=O)/C=C/c1ccccc1` [Odorine]: the log was 9.38e-05.

With `CCCCCCCCCCCCCCCCCCCCCCCc1cc(O)cc(O)c1` [5-Tricosyl-1,3-benzenediol], the log is 0.116.

For `CC1(C)C(=O)CC[C@]2(C)[C@@H]1CC[C@@]13C[C@@H](CC[C@H]12)[C@@H](C(=O)O)C3` (single isomer, unassigned; ent-3) [ent-3-Oxokauran-17-oic acid], the log is 0.0076.

Consider `CC1=CCC[C@H]2[C@@]1(C)[C@@H](OC(=O)c1cccnc1)[C@H](OC(=O)c1cccnc1)[C@](C)(O)[C@]2(C)/C=C/C1=CC(=O)OC1` [Scutebarbatine A], for which the log was 0.177.

For the compound `CC(C)=CCc1c(O[C@@H]2O[C@H](CO)[C@@H](O)[C@H](O)[C@H]2O)cc(O)c2c1O[C@H](c1ccc(O)cc1)CC2=O` [Flavaprin], the log was found to be 0.16.

Turning to `CC[C@H](/C=C/[C@@H](C)[C@H]1CC[C@H]2[C@@H]3CCC4=CC(=O)CC[C@]4(C)[C@H]3CC[C@]12C)C(C)C` [Stigmasta-4,22-dien-3-one], the log is -0.138.
